Measured values: the supplement of paper PMC10849652
The other results are listed elsewhere or left out.

Sequences of proteins named here, by UniProt entry; tags and fusion partners are left off. A change or cut given only in a name is not applied to a line headed by its entry.
UniProt P53801: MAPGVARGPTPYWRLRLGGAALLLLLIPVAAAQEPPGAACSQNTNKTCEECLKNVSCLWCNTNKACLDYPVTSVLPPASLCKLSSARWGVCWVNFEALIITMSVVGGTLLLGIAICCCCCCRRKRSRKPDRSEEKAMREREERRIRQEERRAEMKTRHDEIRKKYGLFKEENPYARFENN
UniProt Q16401: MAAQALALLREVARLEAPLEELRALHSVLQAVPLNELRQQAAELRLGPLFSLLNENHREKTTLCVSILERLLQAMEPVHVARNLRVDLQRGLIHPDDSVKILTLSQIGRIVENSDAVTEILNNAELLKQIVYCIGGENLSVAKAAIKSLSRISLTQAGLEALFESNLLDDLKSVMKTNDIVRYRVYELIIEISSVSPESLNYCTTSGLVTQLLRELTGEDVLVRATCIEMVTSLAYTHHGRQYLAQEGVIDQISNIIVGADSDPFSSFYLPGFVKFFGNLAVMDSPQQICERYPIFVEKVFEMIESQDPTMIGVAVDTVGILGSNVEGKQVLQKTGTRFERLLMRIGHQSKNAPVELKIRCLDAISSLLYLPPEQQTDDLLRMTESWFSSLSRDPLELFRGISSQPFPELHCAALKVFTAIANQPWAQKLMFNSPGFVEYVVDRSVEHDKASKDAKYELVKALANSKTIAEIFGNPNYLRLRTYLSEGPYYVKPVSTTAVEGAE
UniProt O60256: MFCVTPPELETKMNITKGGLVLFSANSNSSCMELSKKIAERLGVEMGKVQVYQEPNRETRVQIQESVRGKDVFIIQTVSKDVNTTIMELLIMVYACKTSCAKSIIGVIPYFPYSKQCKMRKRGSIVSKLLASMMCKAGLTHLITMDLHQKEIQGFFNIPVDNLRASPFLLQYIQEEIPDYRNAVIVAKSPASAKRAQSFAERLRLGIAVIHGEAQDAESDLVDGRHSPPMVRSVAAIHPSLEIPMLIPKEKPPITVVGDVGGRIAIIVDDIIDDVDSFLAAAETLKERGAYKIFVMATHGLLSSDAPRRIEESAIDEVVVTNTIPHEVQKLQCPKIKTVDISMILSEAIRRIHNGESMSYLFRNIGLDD
UniProt Q9UL46, whole entry, looked up: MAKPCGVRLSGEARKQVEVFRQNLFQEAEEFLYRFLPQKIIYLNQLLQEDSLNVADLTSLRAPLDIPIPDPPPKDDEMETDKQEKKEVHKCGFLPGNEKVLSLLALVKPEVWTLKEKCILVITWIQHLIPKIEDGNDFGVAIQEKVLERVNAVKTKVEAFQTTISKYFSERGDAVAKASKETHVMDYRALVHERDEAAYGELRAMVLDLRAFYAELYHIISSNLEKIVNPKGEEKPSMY
UniProt O00231, whole entry, looked up: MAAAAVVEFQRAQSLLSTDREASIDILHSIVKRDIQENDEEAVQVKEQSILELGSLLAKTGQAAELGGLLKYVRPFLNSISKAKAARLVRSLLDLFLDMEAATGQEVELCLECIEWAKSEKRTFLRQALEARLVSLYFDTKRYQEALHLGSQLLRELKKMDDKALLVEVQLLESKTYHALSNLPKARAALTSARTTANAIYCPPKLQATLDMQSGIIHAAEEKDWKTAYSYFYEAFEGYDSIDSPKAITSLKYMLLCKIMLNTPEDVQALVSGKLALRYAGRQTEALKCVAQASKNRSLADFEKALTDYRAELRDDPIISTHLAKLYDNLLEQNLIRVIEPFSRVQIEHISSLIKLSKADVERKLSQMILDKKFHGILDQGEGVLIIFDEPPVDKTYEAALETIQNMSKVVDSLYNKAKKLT
UniProt Q96BW5: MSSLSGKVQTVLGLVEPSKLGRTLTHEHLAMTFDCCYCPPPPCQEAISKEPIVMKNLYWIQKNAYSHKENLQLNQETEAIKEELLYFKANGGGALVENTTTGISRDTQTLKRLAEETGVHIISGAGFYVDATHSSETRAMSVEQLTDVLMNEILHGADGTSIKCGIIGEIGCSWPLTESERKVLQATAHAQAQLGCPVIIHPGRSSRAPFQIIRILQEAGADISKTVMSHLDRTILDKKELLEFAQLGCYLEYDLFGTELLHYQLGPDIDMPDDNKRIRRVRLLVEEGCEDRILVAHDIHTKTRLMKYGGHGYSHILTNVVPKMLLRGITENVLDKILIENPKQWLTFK
UniProt P17706: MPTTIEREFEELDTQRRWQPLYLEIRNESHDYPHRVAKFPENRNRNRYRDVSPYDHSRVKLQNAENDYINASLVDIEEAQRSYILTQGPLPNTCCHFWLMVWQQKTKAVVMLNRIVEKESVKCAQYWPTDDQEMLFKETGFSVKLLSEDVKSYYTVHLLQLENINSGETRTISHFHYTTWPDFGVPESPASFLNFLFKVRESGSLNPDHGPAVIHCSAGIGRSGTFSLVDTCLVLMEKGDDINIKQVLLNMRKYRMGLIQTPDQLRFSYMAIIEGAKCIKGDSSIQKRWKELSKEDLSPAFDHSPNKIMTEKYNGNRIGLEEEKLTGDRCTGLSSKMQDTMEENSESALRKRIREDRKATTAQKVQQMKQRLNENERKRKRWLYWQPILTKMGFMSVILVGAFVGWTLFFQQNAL
UniProt Q9Y6M0: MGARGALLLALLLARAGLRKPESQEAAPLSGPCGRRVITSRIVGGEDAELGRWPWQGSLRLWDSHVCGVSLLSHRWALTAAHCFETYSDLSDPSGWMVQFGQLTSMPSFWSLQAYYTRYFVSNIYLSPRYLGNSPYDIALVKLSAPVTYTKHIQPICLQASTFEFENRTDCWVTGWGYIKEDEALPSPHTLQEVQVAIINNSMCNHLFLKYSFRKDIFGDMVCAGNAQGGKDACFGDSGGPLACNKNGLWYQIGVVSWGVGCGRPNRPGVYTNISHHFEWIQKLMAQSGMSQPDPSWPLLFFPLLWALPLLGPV
UniProt O95758: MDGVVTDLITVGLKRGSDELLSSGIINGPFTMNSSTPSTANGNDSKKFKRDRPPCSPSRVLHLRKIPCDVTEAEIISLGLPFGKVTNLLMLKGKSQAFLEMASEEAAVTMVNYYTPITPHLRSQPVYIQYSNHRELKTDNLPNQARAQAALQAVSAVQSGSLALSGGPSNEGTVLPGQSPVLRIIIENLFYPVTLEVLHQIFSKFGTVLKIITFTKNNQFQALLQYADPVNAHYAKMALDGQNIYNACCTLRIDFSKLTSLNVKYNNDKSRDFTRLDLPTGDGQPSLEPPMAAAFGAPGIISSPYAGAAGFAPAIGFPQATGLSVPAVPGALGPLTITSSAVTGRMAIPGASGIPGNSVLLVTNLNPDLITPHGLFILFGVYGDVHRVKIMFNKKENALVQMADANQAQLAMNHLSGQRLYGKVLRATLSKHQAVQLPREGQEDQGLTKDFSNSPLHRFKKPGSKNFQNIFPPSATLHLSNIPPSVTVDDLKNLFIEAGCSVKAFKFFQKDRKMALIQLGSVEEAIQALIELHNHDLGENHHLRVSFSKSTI
UniProt P60900, whole entry, looked up: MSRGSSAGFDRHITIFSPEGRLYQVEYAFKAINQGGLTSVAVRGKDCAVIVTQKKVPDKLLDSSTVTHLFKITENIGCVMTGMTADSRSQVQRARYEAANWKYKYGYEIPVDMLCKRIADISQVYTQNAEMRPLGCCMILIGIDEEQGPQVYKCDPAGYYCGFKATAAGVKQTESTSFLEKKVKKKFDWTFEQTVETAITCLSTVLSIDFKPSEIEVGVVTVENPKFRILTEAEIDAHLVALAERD
UniProt P55036: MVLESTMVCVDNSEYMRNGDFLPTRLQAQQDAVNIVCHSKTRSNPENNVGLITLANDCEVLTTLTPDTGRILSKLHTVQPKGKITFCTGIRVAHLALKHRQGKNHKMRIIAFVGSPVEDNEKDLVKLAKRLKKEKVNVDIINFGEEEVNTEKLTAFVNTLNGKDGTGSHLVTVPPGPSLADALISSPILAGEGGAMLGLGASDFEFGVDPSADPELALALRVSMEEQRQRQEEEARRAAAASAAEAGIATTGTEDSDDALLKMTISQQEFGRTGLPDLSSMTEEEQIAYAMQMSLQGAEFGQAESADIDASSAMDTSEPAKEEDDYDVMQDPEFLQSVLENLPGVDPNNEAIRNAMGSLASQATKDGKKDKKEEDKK
UniProt Q9P2B2: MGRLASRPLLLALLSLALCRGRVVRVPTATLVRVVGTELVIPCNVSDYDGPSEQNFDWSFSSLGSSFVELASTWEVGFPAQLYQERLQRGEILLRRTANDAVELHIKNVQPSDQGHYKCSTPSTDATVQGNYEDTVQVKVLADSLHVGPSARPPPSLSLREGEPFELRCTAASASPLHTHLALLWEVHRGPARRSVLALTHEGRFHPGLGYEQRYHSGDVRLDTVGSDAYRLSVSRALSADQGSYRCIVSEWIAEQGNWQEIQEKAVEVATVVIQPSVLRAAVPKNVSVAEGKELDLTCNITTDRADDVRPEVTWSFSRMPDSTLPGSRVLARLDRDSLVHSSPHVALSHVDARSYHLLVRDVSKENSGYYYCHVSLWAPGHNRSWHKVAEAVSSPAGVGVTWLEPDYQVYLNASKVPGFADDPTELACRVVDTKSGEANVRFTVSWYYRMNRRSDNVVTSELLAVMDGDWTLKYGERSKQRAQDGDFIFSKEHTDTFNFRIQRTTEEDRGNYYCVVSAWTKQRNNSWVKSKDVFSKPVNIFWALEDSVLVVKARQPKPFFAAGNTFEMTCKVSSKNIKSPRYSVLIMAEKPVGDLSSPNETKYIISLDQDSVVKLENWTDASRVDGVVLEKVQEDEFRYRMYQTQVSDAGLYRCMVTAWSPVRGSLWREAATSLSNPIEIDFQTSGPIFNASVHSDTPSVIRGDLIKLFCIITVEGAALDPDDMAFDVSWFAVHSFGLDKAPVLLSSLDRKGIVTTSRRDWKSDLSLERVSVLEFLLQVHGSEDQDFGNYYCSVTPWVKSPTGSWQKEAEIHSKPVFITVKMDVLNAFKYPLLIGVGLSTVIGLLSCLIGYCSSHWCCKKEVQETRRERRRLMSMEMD
UniProt Q05209: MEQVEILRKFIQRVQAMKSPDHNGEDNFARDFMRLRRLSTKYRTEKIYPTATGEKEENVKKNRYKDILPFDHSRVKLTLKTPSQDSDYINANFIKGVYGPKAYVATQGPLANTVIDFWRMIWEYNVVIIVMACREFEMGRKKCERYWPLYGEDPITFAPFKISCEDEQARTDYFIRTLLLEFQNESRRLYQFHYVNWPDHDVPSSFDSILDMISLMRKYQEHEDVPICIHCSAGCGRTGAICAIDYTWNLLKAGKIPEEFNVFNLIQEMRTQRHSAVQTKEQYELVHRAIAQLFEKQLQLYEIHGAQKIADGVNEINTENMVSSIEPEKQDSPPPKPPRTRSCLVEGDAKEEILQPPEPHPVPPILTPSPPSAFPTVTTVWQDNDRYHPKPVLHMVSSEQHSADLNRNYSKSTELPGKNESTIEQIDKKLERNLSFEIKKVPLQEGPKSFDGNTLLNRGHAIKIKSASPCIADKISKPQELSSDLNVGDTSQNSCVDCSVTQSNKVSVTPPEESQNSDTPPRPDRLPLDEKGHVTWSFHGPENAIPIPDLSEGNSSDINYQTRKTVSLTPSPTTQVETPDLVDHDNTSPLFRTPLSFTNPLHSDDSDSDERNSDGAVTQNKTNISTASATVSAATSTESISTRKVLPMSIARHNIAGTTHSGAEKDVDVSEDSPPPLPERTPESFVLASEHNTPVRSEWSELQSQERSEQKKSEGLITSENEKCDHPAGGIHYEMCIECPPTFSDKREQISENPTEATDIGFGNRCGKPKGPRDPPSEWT
UniProt P28072: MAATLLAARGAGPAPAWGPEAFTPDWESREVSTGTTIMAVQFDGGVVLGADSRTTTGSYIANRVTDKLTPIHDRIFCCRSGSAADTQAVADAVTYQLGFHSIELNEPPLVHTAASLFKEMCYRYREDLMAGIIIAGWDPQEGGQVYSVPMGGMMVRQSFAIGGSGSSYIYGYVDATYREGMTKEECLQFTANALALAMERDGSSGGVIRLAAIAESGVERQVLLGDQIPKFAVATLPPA
UniProt Q15257: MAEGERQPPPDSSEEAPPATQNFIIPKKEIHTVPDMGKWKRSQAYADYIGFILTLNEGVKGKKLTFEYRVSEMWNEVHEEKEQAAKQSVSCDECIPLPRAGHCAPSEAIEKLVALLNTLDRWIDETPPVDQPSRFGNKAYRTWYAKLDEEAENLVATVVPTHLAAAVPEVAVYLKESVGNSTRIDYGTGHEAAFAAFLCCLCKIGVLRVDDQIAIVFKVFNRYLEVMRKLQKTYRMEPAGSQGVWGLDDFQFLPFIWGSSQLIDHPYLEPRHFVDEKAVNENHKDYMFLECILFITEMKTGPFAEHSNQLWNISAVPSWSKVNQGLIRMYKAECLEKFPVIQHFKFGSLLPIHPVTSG
UniProt O95456: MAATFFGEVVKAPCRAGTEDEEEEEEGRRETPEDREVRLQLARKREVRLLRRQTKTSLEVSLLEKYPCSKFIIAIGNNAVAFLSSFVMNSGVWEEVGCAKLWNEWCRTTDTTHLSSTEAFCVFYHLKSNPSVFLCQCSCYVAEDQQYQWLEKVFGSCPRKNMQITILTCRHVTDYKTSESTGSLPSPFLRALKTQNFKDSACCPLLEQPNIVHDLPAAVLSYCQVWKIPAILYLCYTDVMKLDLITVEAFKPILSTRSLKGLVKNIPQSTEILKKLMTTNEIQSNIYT

Experiments:
Test in all cases: log2 fold change, soluble protein after heating vs DMSO (PISA); higher = thermal stabilisation; K562 lysate, 10 uM; active = over 0.2 and 3.5 SD of the protein, either way, in both replicates (recomputed)
[1] = compound: C1=CC=C(C=C1)[C@H](COC2=CC3=C(C=C2)NC(=O)N3)NC(=O)C4=CC=CN(C4=O)CC5=CC(=C(C=C5)F)F
How it was run: (§1)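 The values are log-two fold changes in thermal stability compared with solvent controls and come from duplicates. They were obtained by TMTpro 16plex LC-MS/MS, with channel sums equalised, on the supernatant after 21,000xg for 90 min. That supernatant came from crude K562 extract at 1 mg/mL protein treated with 10 μM compound for 30 min, heated for 3 min across 48°C-58°C, pooled and brought to 0.5% NP-40 at 4°C.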

[2] = compound: CC1=C(SC2=C1C(=N[C@H](C3=NN=C(N32)C)CC(=O)N)C4=CC=C(C=C4)Cl)C
How it was run: as §1

[3] = compound: CC1=C2C(=CC=C1)N=C(N(C2=O)C3=CC=CC=C3C)CN4C=NC5=C(N=CN=C54)N
How it was run: as §1

[4] = compound: Cc1sc2c(c1C)C(c1ccc(Cl)cc1)=N[C@@H](CC(=O)OC(C)(C)C)c1nnc(C)n1-2
How it was run: as §1

[5] = compound: c1ccc([C@@H]2C[C@H]2NC2CCNCC2)cc1
How it was run: as §1

Measured: log2 fold change

PTTG1IP (UniProt P53801)
inactive: [1] -0.029 | [2] 0.007 | [3] -0.299 | [4] -0.183 | [5] -0.034

PSMD5 (UniProt Q16401)
inactive: [1] -0.012 | [2] 0.009 | [3] 0.027 | [4] 0.02 | [5] -0.007

PRPSAP2 (UniProt O60256)
inactive: [1] 0.017 | [2] 0.04 | [3] -0.004 | [4] -0.007 | [5] -0.073

PSME2 (UniProt Q9UL46)
inactive: [1] 0.058 | [2] -0.01 | [3] -0.001 | [4] -0.075 | [5] -0.103

PSMD11 (UniProt O00231)
inactive: [1] 0 | [2] 0.013 | [3] -0.015 | [4] 0.04 | [5] 0.019

PTER (UniProt Q96BW5)
inactive: [1] 0.011 | [2] 0.052 | [3] 0.022 | [4] -0.037 | [5] 0.022

4 successive entries out of the list so far, quoted:
PSMD5 (UniProt Q16401)
inactive: [1] -0.012 | [2] 0.009 | [3] 0.027 | [4] 0.02 | [5] -0.007

PRPSAP2 (UniProt O60256)
inactive: [1] 0.017 | [2] 0.04 | [3] -0.004 | [4] -0.007 | [5] -0.073

PSME2 (UniProt Q9UL46)
inactive: [1] 0.058 | [2] -0.01 | [3] -0.001 | [4] -0.075 | [5] -0.103

PSMD11 (UniProt O00231)
inactive: [1] 0 | [2] 0.013 | [3] -0.015 | [4] 0.04 | [5] 0.019

(further entries)

PTPN2 (UniProt P17706)
inactive: [1] -0.031 | [2] 0.017 | [3] 0.023 | [4] 0.007 | [5] 0.012

PRSS21 (UniProt Q9Y6M0)
inactive: [1] -0.026 | [2] -0.017 | [3] 0.049 | [4] 0.036 | [5] -0.061

PTBP3 isoform 4 (UniProt O95758)
inactive: [1] -0.001 | [2] 0.053 | [3] 0.016 | [4] 0.067 | [5] 0.055

PSMA6 (UniProt P60900)
inactive: [1] 0.03 | [2] 0.007 | [3] -0.048 | [4] 0.013 | [5] -0.002

PSMD4 (UniProt P55036)
inactive: [1] -0.003 | [2] -0.01 | [3] 0.022 | [4] -0.009 | [5] -0.03

PSMB5 (UniProt P28074)
inactive: [1] 0.029 | [2] 0.022 | [3] -0.037 | [4] 0.02 | [5] -0.015

PWP2 (UniProt Q15269)
inactive: [1] -0.004 | [2] -0.042 | [3] -0.013 | [4] -0.048 | [5] 0.061

PSMC2 (UniProt P35998)
inactive: [1] -0.018 | [2] 0.016 | [3] 0.009 | [4] 0.095 | [5] 0.025

PTGFRN (UniProt Q9P2B2)
inactive: [1] 0.047 | [2] 0.027 | [3] -0.026 | [4] 0 | [5] 0.017

PTPN12 (UniProt Q05209)
inactive: [1] 0.006 | [2] -0.024 | [3] 0.018 | [4] -0.051 | [5] 0.008

PSMD2 (UniProt Q13200)
inactive: [1] -0.009 | [2] 0.02 | [3] 0.007 | [4] -0.005 | [5] 0.054

PSTPIP2 (UniProt Q9H939)
inactive: [1] 0 | [2] -0.01 | [3] 0.046 | [4] 0 | [5] 0.027

PSMB6 (UniProt P28072)
inactive: [1] 0.027 | [2] -0.018 | [3] 0.007 | [4] 0.001 | [5] -0.016

PTGES2 (UniProt Q9H7Z7)
inactive: [1] 0.166 | [2] -0.119 | [3] -0.101 | [4] -0.006 | [5] 0.014

PTPN1 (UniProt P18031)
inactive: [1] -0.006 | [2] 0.008 | [3] 0.01 | [4] -0.026 | [5] 0.005

PRR14L (UniProt Q5THK1)
inactive: [1] -0.038 | [2] 0.01 | [3] -0.003 | [4] -0.022 | [5] 0.154

PTPA isoform 2 (UniProt Q15257)
inactive: [1] -0.004 | [2] 0.043 | [3] -0.007 | [4] 0.003 | [5] -0.003

PSMG1 (UniProt O95456)
inactive: [1] 0.034 | [2] -0.027 | [3] 0.029 | [4] -0.046 | [5] 0.01
